Experimental data as given in publication PMC12528649.

Assays:
[1] = system: GST-MaASR3 (Musa acuminata (AAA group)); assay: competition with a labelled probe; settings: mutated competitor vs biotin-labelled N1, did not reduce the shift; Thermo EMSA kit with biotin-labelled probe in binding buffer, acrylamide gel; buffer composition, pH and temperature not stated (refers to Wei et al.); recombinant protein; protein details: N-terminal GST (pGEX)
[2] = system: GST; assay: EMSA; settings: GST alone; Thermo EMSA kit with biotin-labelled probe in binding buffer, acrylamide gel; buffer composition, pH and temperature not stated (refers to Wei et al.); recombinant protein; protein details: GST only
[3] = system: GST-MaASR3 (Musa acuminata (AAA group)); assay: EMSA; settings: unlabeled same-sequence probe reduced the shift; Thermo EMSA kit with biotin-labelled probe in binding buffer, acrylamide gel; buffer composition, pH and temperature not stated (refers to Wei et al.); recombinant protein; protein details: N-terminal GST (pGEX)

Sequence	binding result [1]	binding result [2]	binding result [3]
AACGAAAGAGACTAAGCTTTTCCTCCATCAACGGCGCGC (double strand) [MaNIP1 promoter mutant probe (competitor)]	no binding	–	–
AACGAAAGAGACTAAGAGCCCATTCCATCAACGGCGCGC (double strand) [MaNIP1 promoter probe]	–	no binding	binds

The exact form of at least one protein or probe is not confirmed. For part of these data: Negatives hold for the conditions tested.
